Measured values from article PMC6195791, “C9orf72, a protein associated with amyotrophic lateral sclerosis (ALS) is a guanine nucleotide exchange factor” (PeerJ, 2018).
No constants are given. Whether binding was seen depends on the method and setting. Some entries that bind do so weakly or less than the wild type. Where a sequence is shown, tags or fusion partners need not be part of it.

Sequences of proteins named here, by UniProt entry; tags and fusion partners are left off.
UniProt P60953: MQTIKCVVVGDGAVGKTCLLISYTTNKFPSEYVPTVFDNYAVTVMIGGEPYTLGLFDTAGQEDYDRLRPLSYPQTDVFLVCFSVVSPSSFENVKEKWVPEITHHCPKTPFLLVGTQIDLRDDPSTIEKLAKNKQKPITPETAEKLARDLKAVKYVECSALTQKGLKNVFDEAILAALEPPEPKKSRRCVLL
UniProt P51149: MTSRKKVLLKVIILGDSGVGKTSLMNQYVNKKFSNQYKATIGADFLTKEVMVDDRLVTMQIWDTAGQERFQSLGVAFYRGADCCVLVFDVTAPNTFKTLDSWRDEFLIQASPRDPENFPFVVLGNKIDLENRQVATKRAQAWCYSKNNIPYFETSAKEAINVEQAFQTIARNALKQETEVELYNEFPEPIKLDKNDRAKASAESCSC
UniProt P61586: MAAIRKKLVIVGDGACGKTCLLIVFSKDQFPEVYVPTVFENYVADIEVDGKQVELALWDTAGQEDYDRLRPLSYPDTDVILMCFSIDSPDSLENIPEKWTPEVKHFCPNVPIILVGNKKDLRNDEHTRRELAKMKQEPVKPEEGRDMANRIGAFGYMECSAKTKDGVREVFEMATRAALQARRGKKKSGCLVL

Tests used:
Experiment in all cases: far-Western, overlay or dot blot; GTPases (bait) spotted at 50 pmoles on nitrocellulose, blocked with 5% milk in PBS plus 0.05% Tween-20, probed with 100 nM purified C9orf72 (prey) for at least 6-8 h at 4 °C, detected with polyclonal rabbit anti-C9orf72 antibody; both purified
Rab5A = molecular target: T1, Rab5A (UniProt P20339 1-215)
T1 construct: Rab5A, amplified from its cDNA clone and put into pGEX-6p-1 (BamHI/XhoI); about 25 kDa after tag cleavage; source: E. coli BL21CodonPlus(DE3)RIPL, purified (GST Sepharose 4B, PreScission cleavage, second GST Sepharose pass); not shown: GST, N-terminal, cleaved
T1 sequence (looked up): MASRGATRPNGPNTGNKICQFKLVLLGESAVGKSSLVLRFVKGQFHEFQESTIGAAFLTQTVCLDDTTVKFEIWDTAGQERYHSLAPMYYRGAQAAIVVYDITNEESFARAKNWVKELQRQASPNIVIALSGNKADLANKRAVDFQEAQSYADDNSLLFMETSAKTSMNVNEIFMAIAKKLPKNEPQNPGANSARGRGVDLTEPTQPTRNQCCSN

Rab11A = molecular target: T2, Rab11A (UniProt P62491 1-216)
T2 construct: Rab11A, amplified from its cDNA clone and put into pGEX-6p-1 (BamHI/XhoI); about 25 kDa after tag cleavage; source: E. coli BL21CodonPlus(DE3)RIPL, purified (GST Sepharose 4B, PreScission cleavage, second GST Sepharose pass); not shown: GST, N-terminal, cleaved
T2 sequence (looked up): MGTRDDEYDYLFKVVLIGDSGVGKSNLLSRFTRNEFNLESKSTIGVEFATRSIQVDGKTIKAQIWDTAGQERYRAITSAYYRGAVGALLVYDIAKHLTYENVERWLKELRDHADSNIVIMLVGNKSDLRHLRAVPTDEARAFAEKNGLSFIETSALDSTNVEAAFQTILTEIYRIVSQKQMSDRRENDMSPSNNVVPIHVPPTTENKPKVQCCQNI

Cdc42 = Cdc42 (UniProt P60953)
Rab7A = Rab7A (UniProt P51149)
RhoA = RhoA (UniProt P61586)

Measured: binding

B1: C9orf72 (N-terminal His6, pOPINF-C9orf72) (natural protein, human, UniProt Q96LT7 1-481, looked up)
chain: MSTLCPPPSPAVAKTEIALSGKSPLLAATFAYWDNILGPRVRHIWAPKTEQVLLSDGEITFLANHTLNGEILRNAESGAIDVKFFVLSEKGVIIVSLIFDGNWNGDRSTYGLSIILPQTELSFYLPLHRVCVDRLTHIIRKGRIWMHKERQENVQKIILEGTERMEDQGQSIIPMLTGEVIPVMELLSSMKSHSVPEEIDIADTVLNDDDIGDSCHEGFLLNAISSHLQTCGCSVVVGSSAEKVNKIVRTLCLFLTPAERKCSRLCEAESSFKYESGLFVQGLLKDSTGSFVLPFRQVMYAPYPTTHIDVDVNTVKQMPPCHEHIYNQRRYMRSELTAFWRATSEEDMAQDTIIYTDESFTPDLNIFQDVLHRDTLVKAFLDQVFQLKPGLSLRSTFLAQFLLVLHRKALTLIKYIEDDTQKGKKPFKSLRNLKIDLDLTAEGDLNIIMALAEKIKPGLHSFIFGRPFYTSVQERDVLMTF
notes: the homology model counts residues up to 481; No tag cleavage is described; also called His6-C9orf72; recombinant C9orf72; source: Sf9, baculovirus, purified (HisTrap HP, Superdex200 size-exclusion chromatography); not shown: His6, N-terminal, kept
binds: all assays above
